Patent US20160280798A1, “ALK ANTIBODIES, CONJUGATES, AND CHIMERIC ANTIGEN RECEPTORS, AND THEIR USE” (The United States of America, as Represented by the …, priority 2013, published 2016)

System: transduced PBMC / T cell surface
Assay: CAR expression on transduced T cells by flow cytometry
Format: cell-based, human
Settings: anti-Fc or protein L staining, FIG. 3

B1: ALK48: CAR construct, long format: SP-murine ALK48 scFv-CH2CH3 spacer; signaling domains not stated for the in vitro tests (antibody, V domains shown)
VH: QVQLQQSGAELVKPGASVKISCKASGYAFSSYWMNWVKQRPGKGLEWIGQIYPGDGDTTYNGKFKGKATLTADKSSSTVYMQLNSLTSEDSAVYFCVRYYYGSSGYFDYWGQGTTLTVSS
VL: DVQMIQTPDSLAVSLGQRATISCRASESVDNYGISFMHWYQQKPGQSPKLLIYRASNLESGIPARFSGSGSRTDFTLTINPVETDDVATYYCQQNNKDPPTFGGGTKLEIK
  CAR cell surface expression level: weaker and less distinct expression
